No constants are given. Whether binding was seen depends on the method and setting. Binding seen in cells or lysates may run through a third protein. Some results given as binding are weak or reduced against the parent protein; the word gives no strength.
What was measured:
[1] = molecular target: Mindbomb-1 (Mib1), tagged full-length mouse construct expressed in transfected cells (mouse) (UniProt Q80SY4); test: co-IP; immunoprecipitation of tagged Mib1 and Actn3 (Supplementary Fig. 3a); IP buffer 0.5% or 0.05% Nonidet P-40, 2 mM EDTA, 10% glycerol in PBS; overnight at 4 °C
[2] = molecular target: Mindbomb-1 (Mib1), endogenous in mouse gastrocnemius muscle (mouse (endogenous in gastrocnemius muscle)) (UniProt Q80SY4); test: co-IP; endogenous IP from GA muscle lysates of 3-month-old WT mice with anti-Mib1 and anti-Actn3 antibody; mouse and rabbit IgG as nonspecific control

Chains of the proteins cited; added tags and fusions are not shown.
UniProt Q80SY4: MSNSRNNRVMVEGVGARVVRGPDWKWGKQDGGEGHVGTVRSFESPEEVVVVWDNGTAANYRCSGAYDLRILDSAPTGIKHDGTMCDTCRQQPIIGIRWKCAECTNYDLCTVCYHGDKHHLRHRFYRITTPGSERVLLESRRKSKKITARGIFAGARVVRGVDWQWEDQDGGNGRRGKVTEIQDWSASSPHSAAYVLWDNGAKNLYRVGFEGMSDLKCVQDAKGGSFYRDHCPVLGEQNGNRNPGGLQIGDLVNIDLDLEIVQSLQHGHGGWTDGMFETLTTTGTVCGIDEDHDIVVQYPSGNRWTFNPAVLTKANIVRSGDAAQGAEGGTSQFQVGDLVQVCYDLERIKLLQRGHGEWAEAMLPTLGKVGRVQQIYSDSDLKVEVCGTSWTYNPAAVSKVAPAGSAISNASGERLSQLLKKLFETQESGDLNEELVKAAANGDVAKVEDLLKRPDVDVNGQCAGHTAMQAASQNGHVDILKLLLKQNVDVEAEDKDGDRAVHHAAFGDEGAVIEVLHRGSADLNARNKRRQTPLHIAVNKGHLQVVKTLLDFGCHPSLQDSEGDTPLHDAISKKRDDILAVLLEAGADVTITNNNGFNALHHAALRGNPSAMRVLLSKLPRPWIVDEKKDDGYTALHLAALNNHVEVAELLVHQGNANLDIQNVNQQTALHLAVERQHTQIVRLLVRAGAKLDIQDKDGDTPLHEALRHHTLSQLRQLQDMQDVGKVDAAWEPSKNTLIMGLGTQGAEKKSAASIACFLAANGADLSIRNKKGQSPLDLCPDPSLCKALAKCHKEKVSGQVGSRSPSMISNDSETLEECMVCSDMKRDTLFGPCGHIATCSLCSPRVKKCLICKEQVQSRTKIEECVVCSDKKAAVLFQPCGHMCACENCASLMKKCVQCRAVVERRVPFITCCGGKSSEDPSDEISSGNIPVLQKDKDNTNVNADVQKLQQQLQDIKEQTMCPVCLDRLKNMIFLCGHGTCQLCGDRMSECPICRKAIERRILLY
UniProt O88990: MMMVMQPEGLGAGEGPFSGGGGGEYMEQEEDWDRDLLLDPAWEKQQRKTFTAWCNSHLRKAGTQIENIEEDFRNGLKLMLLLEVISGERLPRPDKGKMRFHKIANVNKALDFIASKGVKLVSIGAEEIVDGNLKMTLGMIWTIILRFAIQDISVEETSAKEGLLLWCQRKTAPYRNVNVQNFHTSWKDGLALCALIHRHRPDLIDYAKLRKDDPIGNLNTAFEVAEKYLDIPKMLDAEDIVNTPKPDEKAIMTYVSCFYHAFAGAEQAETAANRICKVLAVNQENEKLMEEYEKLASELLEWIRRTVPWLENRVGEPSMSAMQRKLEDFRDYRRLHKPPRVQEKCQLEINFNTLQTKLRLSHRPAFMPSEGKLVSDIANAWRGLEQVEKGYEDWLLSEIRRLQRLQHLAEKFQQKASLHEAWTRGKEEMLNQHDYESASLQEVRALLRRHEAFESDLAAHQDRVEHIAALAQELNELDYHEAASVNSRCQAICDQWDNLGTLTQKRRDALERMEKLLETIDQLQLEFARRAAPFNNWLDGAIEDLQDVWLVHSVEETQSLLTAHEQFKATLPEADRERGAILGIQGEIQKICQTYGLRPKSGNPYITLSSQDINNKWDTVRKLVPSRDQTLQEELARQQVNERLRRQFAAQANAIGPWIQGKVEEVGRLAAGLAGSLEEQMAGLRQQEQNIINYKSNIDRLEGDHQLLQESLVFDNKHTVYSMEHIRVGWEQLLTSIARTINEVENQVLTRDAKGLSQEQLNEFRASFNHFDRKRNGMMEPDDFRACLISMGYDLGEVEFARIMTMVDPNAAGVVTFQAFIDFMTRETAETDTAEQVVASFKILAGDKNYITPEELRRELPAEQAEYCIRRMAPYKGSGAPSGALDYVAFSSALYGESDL

binding [1] | binding [2] | Substance
binds | – | α-actinin 3 (Actn3)-MycHis, full-length mouse construct expressed in transfected cells (from UniProt O88990 1-900)
– | binds | α-actinin 3 (Actn3), endogenous in mouse gastrocnemius muscle (from UniProt O88990 1-900)
